We go through 107 sequences from PubChem BioAssay AID1508600 (Functional Genomics Laboratory (NCATS/FGL), 2020).

Among all 53,000 sequences or so, about 3,700 (7%) were called active.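 The calls were made as follows: active = gene knockdowns whose robust z-score for IL-1 alpha signal is at least 2 or at most -2, so actives lie on both sides; inactive = the rest.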 The list shows a part of the results.

This assay in a line: Components of the Cytosolic LPS Sensing Pathway: Gene Identification via Genome-wide siRNA Screen.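 Also: robust z of the log signal after scaling to non-targeting control siRNA wells of the plate.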 The settings on record: RAW264.7 macrophages, IL-1a HTRF, actives lie on both sides, screened at 100 nM (by protocol), cells primed 5 h with Pam3CSK4 first. In a few lines:
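Three distinct siRNAs per gene were tested singly at 100 nM in RAW264.7 macrophages. Following Pam3CSK4 priming and 24 hour LipidA transfection, IL-1a secretion was read by HTRF.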
Regarding GGAUCAUUUCCUAGGACUGTT against Cox15, the z-score is inactive: -1.94.
To GGAAGCUUCAAGCCAUGGUTT against Creb3 belongs inactive: -0.919; to GUAAAUAAAUCUGGUGGCATT against Rps25, inactive: -0.92; to GAAAGUGAAACCAUUGCUGTT against Defb37, inactive: 0.927.
As to CGUCUAGGAUGUGAAGUUUTT against Rbp4, the z-score was inactive: 1.97.
On to GCUAUGAACUUGUAGGAAATT against Iqcf4, for which the z-score is inactive: -0.56.
As to GGUAGUGGAGACAGAGAAGTT against Rasgrf1, the z-score was inactive: -0.527.
With GCGAGUAGGACCAGUGAAATT against Xpo1, the z-score is active: -2.67.
With CGACAAACACCGUAGCAAATT against Mrtfb, the z-score is inactive: -0.00947.
Consider GGACACAUGGAUGGAAUGUTT against Cd5l, for which the z-score is inactive: 0.429.
The result for GGGAAUUUCCUGAAAUCCUTT against Mettl8 reads inactive: -0.167; that for CCGUCUUCAAGACAGAUGCTT against Mzt2, inactive: -0.239.
On to GGACCUUUUUAUCCAACGCTT against Mcts2, for which the z-score is inactive: 0.46.
As to GGUAAUGCUGUGGAGUCUUTT against Wdr53, the z-score is active: -2.59.
For the sequence CCACGCUAACUGGAAAGAATT against Dusp19, the z-score was inactive: 0.558.
For GUGCAGAAGCUGAUGCACCTT against Pou3f1, the z-score was inactive: -0.0458.
The result for GGUUUAUAGCUUUUUGGUCTT against Tiam1 reads inactive: 1.58; that for GGACUACCUGUGAAGCAAUTT against Mtfmt, inactive: -1.67; that for GGAGAAGGCAAAGAAAGGATT against Foxa3, inactive: 0.127.
To GGAUGAGCUUUAAAAUAGATT against Mc1r belongs inactive: 0.375.
In the case of CCCUCAUACCGCUUAGAACTT against Tctex1d4, the z-score was inactive: -0.786.
GGACCAUGUGGACUUUAGCTT against Sema7a: the z-score was inactive: -0.522.
To GGUGAAAGAGAAGACUGAATT against Aimp1 belongs inactive: -0.418; to GGAACUCAAAUUGAAAAGGTT against Manea, inactive: -0.135.
Turning to GGUGUAGGCUGUCCAAUAATT against Rtel1, the z-score is inactive: 0.74.
On to GGGAUGACUUUAAUAUCAATT against Cyth3, for which the z-score was inactive: -0.72.
For the sequence GCAAGAACAUUAUGAAAGUTT against Epb41, the z-score is inactive: 0.905.
With GGAGACAAACAAAAUCAUCTT against Sbsn, the z-score is inactive: -0.885.
For “GGCACUAAUUGAAGAAUUUTT against 4930544G11Rik”, the z-score is inactive: 0.151.
In the case of CGUUCACCGUCUCCAAGUATT against Cav3, the z-score was inactive: -1.62.
On to GGGCAGAAGUCGUGUUUCUTT against Abhd14a, for which the z-score is inactive: -0.243.
The result for GGAACUUCCUGUUCAGAAATT against Eci3 reads inactive: 0.881; that for GGUCAUGGAAGAUUCCAAGTT against Atp6v1c2, inactive: 0.843.
Turning to GCACAAGACUAACAAUACGTT against Sptbn2, the z-score was inactive: -1.26.
In the case of GCCACUCACUAUGCUACUCTT against Pnpla2, the z-score is active: -2.62.
GGGCCAAAACAAUUAAGAATT against Kif5b: the z-score is inactive: 0.412.
As to CCUAAUUUCCUAGAUCUUCTT against Rtp1, the z-score was inactive: -0.439.
On to CCCAAAUACUCCAAUUAUATT against Fzd3, for which the z-score is inactive: 0.289.
Turning to GGCAGAAAGACAUUUUCUUTT against Ift80, the z-score was active: -2.53.
For the sequence GGCUCUGUUUAUCCUGGAGTT against Pcdha7, the z-score is inactive: -0.0385.
To GGACCUCGAUCUCUCUUAUTT against Lrfn3 belongs inactive: -0.354; to GCUCACCCAACAAUAUCCATT against Slc17a8, inactive: -0.881.
Consider GGUCAGCUUCAGAGAAAACTT against Aire, for which the z-score was inactive: -0.411.
As to AACUCGUGUGCAACGUGGUTT against Tctex1d4, the z-score is inactive: 0.79.
GCCAUUGGGUGUAACAUUUTT against Mpp6: the z-score was active: 3.35.
With GGGCUACUCAGCCUAUAGUTT against Asic4, the z-score is inactive: 1.22.
To CCCUUGACACUUAAUAAAGTT against Zfpm1 belongs inactive: -0.875; to GCGCAAUACGUGGGUUUGUTT against Shisal2b, inactive: 0.254; to GGUCCAAAGAAAGACCCAUTT against Cypt4, inactive: -0.131.
For the sequence GGUCCUCAUGGGCAACAUUTT against Olfr624, the z-score was inactive: -1.69.
Consider CCAUGAAGUAUGGAACAACTT against Mccc1, for which the z-score was inactive: -0.74.
For GGUGUUGGUGAACGUAAAGTT against Eif3i, the z-score was inactive: -1.45.
In the case of GGCGGCCUAUAUGAGGUUCTT against Cftr, the z-score is inactive: 0.548.
Take GGAGCUAGUAUGUUCAACATT against Ubqln1: the z-score was inactive: -0.942.
For the sequence GGAGUUAUCCGUAUUAGUGTT against Sbno2, the z-score was inactive: -0.21.
Take CCUGUAAGAACCUUGCCUATT against Sytl3: the z-score is inactive: 0.733.
To GGGAAAAUAACGGUGAAUATT against Hspb8 belongs inactive: -0.386; to CCCAGCAUGGAUCAAGCACTT against Krt73, inactive: 0.864; to GCACAUCGAAAAUGCCCUGTT against Cpt1c, inactive: -0.154.
To CGAACUGGGCAGUAUAAACTT against Fgf2 belongs inactive: 0.964.
With GGGAGCAUCAGUUAAUUUUTT against Yes1, the z-score is inactive: 0.482.
The result for GGAUAACCCUCAGAAGUCCTT against Was reads inactive: 0.664; that for CCGUCAUCUGCUCUGAUUUTT against Cd5, inactive: -0.121.
In the case of GGGUCUUCUUCCUGAGUGUTT against Ak8, the z-score was inactive: -1.67.
To CGAGUUUAAAGACCUGGAGTT against Gjb6 belongs inactive: 1.09; to GGACUUGAAAUUAGCAAAATT against Arhgef3, inactive: -0.0218.
With GGAUGUCAGGCUUUGUACATT against Alg6, the z-score was inactive: 0.848.
The result for GCGGGACUACACUCUUAAGTT against Car15 reads inactive: 0.575; that for GGCAGUGGACCACAUCAACTT against Eno2, inactive: -0.253; that for GUGGUUGAACGGGAAUUUGTT against Gm11487, inactive: 0.542.
On to GAAGGAAGUUGGAAAGAACTT against Bcl2a1c, for which the z-score is inactive: 0.195.
As for GGUGCACUACACCACAAACTT against Stbd1, the z-score was inactive: 0.169.
The result for GCGAGUUCGGAAGAAGUAUTT against Ddx41 reads inactive: -0.198; that for GCUGGUUACUCCCAAGACGTT against Dlgap2, active: 2.18.
Turning to GGGUCCUCUCCACAUCAAGTT against Iba57, the z-score is inactive: 0.224.
For the sequence CCUCCAAGACUUAAAAGUATT against Csde1, the z-score was inactive: 0.776.
Regarding GAAGAGCAAGCCAUUUGAUTT against Lipi, the z-score was inactive: -0.443.
With “GGGAUGGUAACAGGAAGUGTT against A530016L24Rik”, the z-score was inactive: 1.32.
Take GGCACUUGCUCAUUCAUUCTT against Zbtb10: the z-score was inactive: 1.34.
On to GCAACUUACAAGCAGGCCGTT against Fcgr3, for which the z-score is inactive: -0.199.
To CCACGUCCUCUACUUGUAUTT against Nmbr belongs inactive: -0.813; to GCCUAGUCCACUUUAUCCUTT against Def8, inactive: -1.22; to GGACCAACCUUAUAUGAAATT against Brix1, inactive: 1.04.
The result for GCUGUGGUACAACCACAUUTT against Lrrc8a reads inactive: -0.244; that for GCUAUGUAACACACCGCUGTT against Ticam1, inactive: -1.24.
With GGAGAAGAUGUCAUCCAGATT against Zfp467, the z-score was inactive: -0.37.
For the sequence GGGACCUAAAGUCACAGUCTT against Ppib, the z-score was inactive: -0.429.
To GGAGAAGGAGUUCCUUAUGTT against Ikbkg belongs inactive: 1.26.
To CCUUUGUACAAUGUAUAGATT against Fam76a belongs inactive: 0.256; to GGCAGAAGAAGUAUUCUAUTT against Sgk1, inactive: -0.223; to GGACAUAAAGAAGGAACUUTT against Myt1, inactive: -1.93.
GGAAAUCAAAGAACUGUAUTT against Atl3: the z-score is inactive: 1.33.
As to GGCAGAACUACUUUUAUAGTT against Cldn17, the z-score was inactive: 0.436.
With GGCCUUGUAUAAAACACAUTT against Pah, the z-score was inactive: 0.293.
Turning to GCCAUUCUAACUCUGCCUCTT against Olfr639, the z-score was inactive: 0.232.
To GCUCUGAGUGAGUCAAAAGTT against Memo1 belongs inactive: 0.108; to GCGUCCUGUUCUGUAUCAATT against Tas2r126, inactive: 0.386; to GGAAGAUUGAAUUUGACUCTT against Rpn2, inactive: -0.642.
GGCAUUAUAAGUGACCUUATT against Smarcc1: the z-score was inactive: 1.53.
Consider GGCUUAUAGGAGGCUCUCUTT against Prop1, for which the z-score was inactive: -1.27.
On to GGCUCUGGAAAACUCAAAUTT against Heatr5b, for which the z-score was inactive: 0.941.
For the sequence GGGCUCAGUAGUAAAUAUGTT against Zswim1, the z-score was inactive: -0.0513.
The result for GGACACAGCAAGGAAGAAATT against Mad2l1bp reads inactive: 0.335; that for GGCCUAAAUCUAAUCAAAGTT against Itfg1, inactive: 1.46.
Turning to GGAGGUGAAGAUGGCCAUGTT against Olfr285, the z-score was inactive: 0.349.
GCCAAUUUGAAGGUUUUCATT against Tlr8: the z-score was inactive: 1.58.
Take CGUGAUCAAAACUCACAUGTT against Slc25a38: the z-score is inactive: 0.822.
